{"source": "PubChem BioAssay AID602346", "about": "(Broad Institute, 2012)", "note": "Hit rate of the full screen: of about 340,000 compounds, about 1,200 (0.35%) were called active. Inconclusive means that the source gave no clear call. Such entries were picked first, then a sample of the others. No stated cut-off is given here; in the data, active means inhibition above about 50% (passing the limit was not always enough); inconclusive means no clear call, values can overlap the other calls; inactive means below about 31%."}
{"experiment": "blockers of Vif multimerization in cells – imaging, HEK293T, single point, primary screen (AID 602346)", "details": "Vif self-association by quenched fluorescence, 24 h, at 7.49 µM, stronger effect = higher value"}
{"smiles": "O=C1/C(=C/c2cccc([N+](=O)[O-])c2)CCc2ccccc21", "inhibition": "active: 136%"}
{"smiles": "COc1ccc(CC(NC(C)=O)C(=O)NC2CCN(C(=O)c3ccccc3F)CC2)cc1", "note": "(stereo not given)", "inhibition": "active: 70.4%"}
{"smiles": "Cc1c(CC(=O)NCC(=O)N[C@H](Cc2ccccc2)C(=O)O)c(=O)oc2cc(O)ccc12", "inhibition": "inconclusive: 42.5%"}
{"smiles": "Cc1cc(N)ccc1-c1cc2ccccc2oc1=O", "inhibition": "active: 51.7%"}
{"smiles": "O=C(NC(=S)Nc1ccc(Cl)cn1)c1cccs1", "inhibition": "inactive: -6.71%"}
{"smiles": "O=c1c(-c2ccc(Br)cc2)coc2c(CN3CCCCC3)c(O)ccc12", "inhibition": "inactive: -4.31%"}
{"smiles": "COCCNc1nc(Oc2cncc(Cl)c2)c2sccc2n1", "inhibition": "inconclusive: 48.5%"}
{"smiles": "COc1cccc(NC(=O)Nc2nnc(Cc3ccccc3F)s2)c1", "inhibition": "inactive: -10.9%"}
{"smiles": "Cc1ccc(NC(=O)CSCC#N)cc1Cl", "inhibition": "inconclusive: 45.6%"}
{"smiles": "CNC(=O)COC(=O)c1ccc2c(c1)S(=O)(=O)c1ccccc1C2=O", "inhibition": "inconclusive: 48.3%"}
{"smiles": "COc1ccc(NC(=O)CN2CCc3ccccc3C2)cc1", "inhibition": "inconclusive: 41.8%"}
{"smiles": "O=C(CCCn1c(SCC(=O)c2ccc(F)cc2)nc2ccccc2c1=O)NCc1ccccc1", "inhibition": "inconclusive: 43.6%"}
{"smiles": "COc1cccc(NC(=O)/C=C/c2ccco2)c1", "inhibition": "inactive: -3.12%"}
{"smiles": "Fc1ccc(-c2cc(-c3cccs3)cc(-c3ccccc3)n2)cc1", "inhibition": "inactive: -8.01%"}
{"smiles": "CC(C(=O)Nc1cc(C(F)(F)F)ccc1N1CCOCC1)N1C(=O)C2CC=CCC2C1=O", "note": "(stereo not given)", "inhibition": "inconclusive: 41.3%"}
{"smiles": "C=CCOC(=O)C1=C(C)NC(SCC(=O)NC(=O)OCC)=C(C#N)C1c1cccnc1", "note": "(stereo not given)", "inhibition": "inconclusive: 37.6%"}
{"smiles": "COc1cc(CC(=O)OCC(=O)Nc2ccc(N(C)C)cc2)cc(OC)c1OC", "inhibition": "inconclusive: 37.7%"}
{"smiles": "CCCOc1ccc(C2NC(=O)CCC2[N+](=O)[O-])cc1", "note": "(stereo not given)", "inhibition": "inconclusive: 48.3%"}
{"smiles": "CC[C@@H]1C/C=C\\Cc2ccccc2[C@@H](C(=O)C[C@@H](O)CC(C)=O)OC1=O", "inhibition": "inactive: -0.228%"}
{"smiles": "C=CCN1C(=O)/C(=C/c2ccc(-c3ccc(F)cc3)o2)SC1=S", "inhibition": "active: 82.3%"}
{"smiles": "CCOC(=O)N(Cc1ccccc1)C1CC1", "inhibition": "inconclusive: 42.7%"}
{"smiles": "CN(C)c1ccc(NC2=C(Cl)C(=O)c3ccccc3C2=O)cc1", "inhibition": "inactive: 1.6%"}
{"smiles": "COCc1nc2oc3ccc(C)cc3c(=O)c2cc1C(=O)OC", "inhibition": "inactive: 14.8%"}
{"smiles": "C[C@H](NC(=O)c1nc[nH]c1C(=O)N[C@@H](C)C(=O)OCc1ccccc1)C(=O)OCc1ccccc1", "inhibition": "active: 67.7%"}
{"smiles": "CCCn1c(=N)c(C(=O)NCc2ccc3c(c2)OCO3)cc2c(=O)n3cccc(C)c3nc21", "inhibition": "active: 92.5%"}
